Results deposited as PubChem BioAssay AID1259425 (University of Nebraska Medical Center, 2018)
Shown is a random part of about 14,000 reagents tested. Not all columns of the deposit are shown. The record does not give: the time to read-out.

Test: 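Find knockdowns that reproduce the gene expression pattern seen when KSR1 is lost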 (primary screen)
Cell system: HCT116 human colon cancer cells
Reagents: siRNA pool against human genes, 50 nM siRNA
Read-out: 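mRNA of six signature genes measured together by branched-DNA assay after 50 nM siRNA pool, blank removed, divided by geometric mean of two housekeeping genes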
Reading the numbers: BNIP3L mRNA: higher = more BNIP3L transcript after knockdown

{"target gene": "TNMD (GeneID 64102)", "BNIP3L mRNA, set 1": 0.101}
{"target gene": "UNG (GeneID 7374)", "BNIP3L mRNA, set 1": 0.186}
{"target gene": "MARCHF2 (GeneID 51257)", "BNIP3L mRNA, set 1": 0.11}
{"target gene": "ARG2 (GeneID 384)", "BNIP3L mRNA, set 1": 0.0911}
{"target gene": "IFNGR2 (GeneID 3460)", "BNIP3L mRNA, set 1": 0.0714}
{"target gene": "PUS7 (GeneID 54517)", "BNIP3L mRNA, set 1": 0.0739}
{"target gene": "STMN1 (GeneID 3925)", "BNIP3L mRNA, set 1": 0.0829}
{"target gene": "SPAG7 (GeneID 9552)", "BNIP3L mRNA, set 1": 0.171}
{"target gene": "CSNK1A1L (GeneID 122011)", "BNIP3L mRNA, set 1": 0.0548}
{"target gene": "NDRG1 (GeneID 10397)", "BNIP3L mRNA, set 1": 0.0787}
{"target gene": "CCR2 (GeneID 729230)", "BNIP3L mRNA, set 1": 0.118}
{"target gene": "S100A11 (GeneID 6282)", "BNIP3L mRNA, set 1": 0.111}

The list goes on (3 carried over from the part before).
{"target gene": "NDRG1 (GeneID 10397)", "BNIP3L mRNA, set 1": 0.0787}
{"target gene": "CCR2 (GeneID 729230)", "BNIP3L mRNA, set 1": 0.118}
{"target gene": "S100A11 (GeneID 6282)", "BNIP3L mRNA, set 1": 0.111}
{"target gene": "LONRF3 (GeneID 79836)", "BNIP3L mRNA, set 1": 0.176}
{"target gene": "PRKCH (GeneID 5583)", "BNIP3L mRNA, set 1": 0.346}
{"target gene": "MON1B (GeneID 22879)", "BNIP3L mRNA, set 1": 0.129}
{"target gene": "PDE7A (GeneID 5150)", "BNIP3L mRNA, set 1": 0.0581}
{"target gene": "E2F3 (GeneID 1871)", "BNIP3L mRNA, set 1": 0.0826}
{"target gene": "HSD17B14 (GeneID 51171)", "BNIP3L mRNA, set 1": 0.172}
{"target gene": "HCST (GeneID 10870)", "BNIP3L mRNA, set 1": 0.0602}
{"target gene": "UBN1 (GeneID 29855)", "BNIP3L mRNA, set 1": 0.136}
{"target gene": "ZFHX3 (GeneID 463)", "BNIP3L mRNA, set 1": 0.146}
{"target gene": "PEX14 (GeneID 5195)", "BNIP3L mRNA, set 1": 0.0883}
{"target gene": "RS1 (GeneID 6247)", "BNIP3L mRNA, set 1": 0.111}
{"target gene": "TNPO3 (GeneID 23534)", "BNIP3L mRNA, set 1": 0.11}
{"target gene": "FOSB (GeneID 2354)", "BNIP3L mRNA, set 1": 0.0951}
{"target gene": "ORC2 (GeneID 4999)", "BNIP3L mRNA, set 1": 0.146}
{"target gene": "TLN2 (GeneID 83660)", "BNIP3L mRNA, set 1": 0.1}
{"target gene": "SULT1A2 (GeneID 6799)", "BNIP3L mRNA, set 1": 0.159}
{"target gene": "ZC3H8 (GeneID 84524)", "BNIP3L mRNA, set 1": 0.107}
{"target gene": "LINC01749 (GeneID 63930)", "BNIP3L mRNA, set 1": 0.0676}
{"target gene": "ZNF566 (GeneID 84924)", "BNIP3L mRNA, set 1": 0.144}
{"target gene": "ABHD1 (GeneID 84696)", "BNIP3L mRNA, set 1": 0.172}
{"target gene": "BLTP3A (GeneID 54887)", "BNIP3L mRNA, set 1": 0.0716}
{"target gene": "ZHX3 (GeneID 23051)", "BNIP3L mRNA, set 1": 0.128}
{"target gene": "RNFT2 (GeneID 84900)", "BNIP3L mRNA, set 1": 0.266}
{"target gene": "KXD1 (GeneID 79036)", "BNIP3L mRNA, set 1": 0.0992}
